Reference: the supplement of paper PMC7666118
The other results are listed elsewhere or left out.

Protein sequences, listed by entry. Tags and fused reporters are not part of them. Lines headed by an entry give the natural chain unless they say otherwise; changes in a name come on top.
UniProt Q9NXR1: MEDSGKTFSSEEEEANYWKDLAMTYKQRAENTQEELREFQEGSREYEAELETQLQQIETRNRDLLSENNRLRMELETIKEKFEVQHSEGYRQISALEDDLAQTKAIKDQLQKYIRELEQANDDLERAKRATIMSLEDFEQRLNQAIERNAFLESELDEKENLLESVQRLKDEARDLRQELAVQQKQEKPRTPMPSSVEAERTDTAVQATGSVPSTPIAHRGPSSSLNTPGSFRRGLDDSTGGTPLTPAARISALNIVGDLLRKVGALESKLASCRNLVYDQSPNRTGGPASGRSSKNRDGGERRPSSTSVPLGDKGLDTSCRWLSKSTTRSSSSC
UniProt Q7Z6M4: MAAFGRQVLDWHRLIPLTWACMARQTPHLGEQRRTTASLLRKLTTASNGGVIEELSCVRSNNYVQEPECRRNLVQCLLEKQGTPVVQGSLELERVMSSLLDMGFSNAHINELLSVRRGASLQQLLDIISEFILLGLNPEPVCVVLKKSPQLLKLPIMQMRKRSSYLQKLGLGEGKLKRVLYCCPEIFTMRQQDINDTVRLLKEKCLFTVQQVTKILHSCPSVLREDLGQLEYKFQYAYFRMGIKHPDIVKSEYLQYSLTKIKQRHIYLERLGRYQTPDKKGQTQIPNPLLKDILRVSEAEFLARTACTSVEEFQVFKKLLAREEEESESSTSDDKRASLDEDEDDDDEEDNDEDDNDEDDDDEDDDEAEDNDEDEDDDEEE
UniProt P51957: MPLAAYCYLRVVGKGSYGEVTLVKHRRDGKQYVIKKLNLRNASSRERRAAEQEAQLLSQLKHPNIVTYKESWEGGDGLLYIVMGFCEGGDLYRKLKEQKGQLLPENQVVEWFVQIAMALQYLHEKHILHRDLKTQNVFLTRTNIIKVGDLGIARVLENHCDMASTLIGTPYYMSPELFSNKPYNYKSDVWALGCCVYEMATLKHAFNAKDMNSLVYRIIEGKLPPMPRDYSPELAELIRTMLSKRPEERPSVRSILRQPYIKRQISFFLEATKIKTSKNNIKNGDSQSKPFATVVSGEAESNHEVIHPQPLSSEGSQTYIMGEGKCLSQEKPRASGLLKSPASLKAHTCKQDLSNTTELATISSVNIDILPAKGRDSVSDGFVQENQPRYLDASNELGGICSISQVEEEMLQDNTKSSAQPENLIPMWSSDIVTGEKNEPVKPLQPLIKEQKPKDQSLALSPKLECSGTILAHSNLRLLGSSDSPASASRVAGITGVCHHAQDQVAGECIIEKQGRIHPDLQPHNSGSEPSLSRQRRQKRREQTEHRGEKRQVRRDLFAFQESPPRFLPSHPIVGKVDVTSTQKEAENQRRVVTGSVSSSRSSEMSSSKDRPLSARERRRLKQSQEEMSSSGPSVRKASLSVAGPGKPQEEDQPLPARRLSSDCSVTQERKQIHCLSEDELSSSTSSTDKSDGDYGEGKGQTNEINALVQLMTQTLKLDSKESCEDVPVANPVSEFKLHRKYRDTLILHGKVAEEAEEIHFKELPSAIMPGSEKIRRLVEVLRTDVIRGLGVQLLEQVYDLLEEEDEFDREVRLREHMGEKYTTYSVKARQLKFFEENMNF
UniProt Q96E11: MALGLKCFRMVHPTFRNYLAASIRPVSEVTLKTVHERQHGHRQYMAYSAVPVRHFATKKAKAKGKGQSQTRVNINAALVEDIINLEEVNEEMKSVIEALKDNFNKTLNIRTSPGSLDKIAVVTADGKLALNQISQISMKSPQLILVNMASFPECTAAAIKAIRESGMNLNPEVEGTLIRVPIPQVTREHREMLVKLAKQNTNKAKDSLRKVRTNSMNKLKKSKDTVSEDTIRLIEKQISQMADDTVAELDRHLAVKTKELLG
UniProt P43246, whole entry: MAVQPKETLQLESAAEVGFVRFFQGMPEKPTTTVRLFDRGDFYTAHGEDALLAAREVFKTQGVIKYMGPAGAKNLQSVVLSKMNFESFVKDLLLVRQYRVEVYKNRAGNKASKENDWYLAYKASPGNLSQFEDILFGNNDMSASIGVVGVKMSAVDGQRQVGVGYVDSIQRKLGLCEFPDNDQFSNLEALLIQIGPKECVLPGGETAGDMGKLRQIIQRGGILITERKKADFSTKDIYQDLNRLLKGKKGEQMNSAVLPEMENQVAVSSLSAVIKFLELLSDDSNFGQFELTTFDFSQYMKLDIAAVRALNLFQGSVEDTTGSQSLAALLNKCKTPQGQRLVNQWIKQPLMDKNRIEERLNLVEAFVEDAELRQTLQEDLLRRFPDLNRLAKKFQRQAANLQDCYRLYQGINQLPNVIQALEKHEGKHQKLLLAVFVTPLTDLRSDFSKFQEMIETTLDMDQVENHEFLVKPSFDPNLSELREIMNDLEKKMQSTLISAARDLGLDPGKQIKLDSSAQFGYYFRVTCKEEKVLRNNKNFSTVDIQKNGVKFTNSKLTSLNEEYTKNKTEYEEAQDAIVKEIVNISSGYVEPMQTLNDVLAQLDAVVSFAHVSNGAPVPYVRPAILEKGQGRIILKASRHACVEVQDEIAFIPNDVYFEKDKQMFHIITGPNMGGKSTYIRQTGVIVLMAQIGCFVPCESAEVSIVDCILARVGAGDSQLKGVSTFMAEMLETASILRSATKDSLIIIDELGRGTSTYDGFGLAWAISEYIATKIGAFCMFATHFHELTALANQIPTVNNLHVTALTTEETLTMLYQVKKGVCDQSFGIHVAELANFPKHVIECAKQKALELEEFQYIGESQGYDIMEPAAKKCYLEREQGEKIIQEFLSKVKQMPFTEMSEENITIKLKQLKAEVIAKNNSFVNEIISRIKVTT
UniProt Q8NHV4, whole entry: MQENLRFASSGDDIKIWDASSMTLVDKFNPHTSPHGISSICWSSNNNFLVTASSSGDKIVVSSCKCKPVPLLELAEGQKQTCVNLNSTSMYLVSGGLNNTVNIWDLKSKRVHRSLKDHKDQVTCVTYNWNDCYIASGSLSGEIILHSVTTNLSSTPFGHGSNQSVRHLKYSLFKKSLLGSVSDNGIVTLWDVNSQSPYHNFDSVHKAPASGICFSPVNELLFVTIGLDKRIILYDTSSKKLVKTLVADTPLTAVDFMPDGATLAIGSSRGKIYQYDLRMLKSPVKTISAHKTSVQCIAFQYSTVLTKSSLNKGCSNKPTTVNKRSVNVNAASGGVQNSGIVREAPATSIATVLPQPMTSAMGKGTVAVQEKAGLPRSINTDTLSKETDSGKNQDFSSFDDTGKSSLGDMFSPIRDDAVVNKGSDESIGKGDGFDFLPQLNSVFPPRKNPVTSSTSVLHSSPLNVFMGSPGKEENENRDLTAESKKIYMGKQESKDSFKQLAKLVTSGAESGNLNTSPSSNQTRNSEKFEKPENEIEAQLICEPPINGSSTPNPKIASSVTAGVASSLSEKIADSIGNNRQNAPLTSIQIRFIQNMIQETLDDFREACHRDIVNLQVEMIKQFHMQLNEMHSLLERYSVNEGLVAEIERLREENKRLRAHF
UniProt Q9UFN0: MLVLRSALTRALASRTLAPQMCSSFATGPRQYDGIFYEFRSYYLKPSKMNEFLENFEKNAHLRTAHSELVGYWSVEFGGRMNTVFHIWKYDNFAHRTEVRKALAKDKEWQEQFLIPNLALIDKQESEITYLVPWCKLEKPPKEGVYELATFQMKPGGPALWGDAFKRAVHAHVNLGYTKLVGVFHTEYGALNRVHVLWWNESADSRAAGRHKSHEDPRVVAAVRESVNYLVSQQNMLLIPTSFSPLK
UniProt O43678, whole entry: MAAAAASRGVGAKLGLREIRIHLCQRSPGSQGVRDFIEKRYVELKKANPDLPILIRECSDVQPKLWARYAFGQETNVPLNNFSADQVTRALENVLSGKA
UniProt P19338, whole entry: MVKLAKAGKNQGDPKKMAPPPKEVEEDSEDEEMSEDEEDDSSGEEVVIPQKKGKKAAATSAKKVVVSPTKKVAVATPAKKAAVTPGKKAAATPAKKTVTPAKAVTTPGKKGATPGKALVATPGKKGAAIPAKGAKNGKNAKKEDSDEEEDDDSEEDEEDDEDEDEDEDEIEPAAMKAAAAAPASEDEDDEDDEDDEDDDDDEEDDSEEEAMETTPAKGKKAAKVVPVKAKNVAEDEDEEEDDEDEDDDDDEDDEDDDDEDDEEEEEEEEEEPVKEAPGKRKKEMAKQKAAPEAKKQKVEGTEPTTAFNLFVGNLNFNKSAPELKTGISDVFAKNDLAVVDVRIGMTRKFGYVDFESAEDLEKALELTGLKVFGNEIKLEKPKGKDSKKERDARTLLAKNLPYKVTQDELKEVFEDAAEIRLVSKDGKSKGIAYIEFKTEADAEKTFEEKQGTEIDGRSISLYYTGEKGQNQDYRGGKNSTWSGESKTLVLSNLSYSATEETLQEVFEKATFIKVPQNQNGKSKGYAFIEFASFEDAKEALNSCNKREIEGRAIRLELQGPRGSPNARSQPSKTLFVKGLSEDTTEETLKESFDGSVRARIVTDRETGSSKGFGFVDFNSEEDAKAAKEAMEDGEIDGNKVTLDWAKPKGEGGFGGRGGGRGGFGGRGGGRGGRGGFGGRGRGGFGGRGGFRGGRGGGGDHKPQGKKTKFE
UniProt Q9GZU8: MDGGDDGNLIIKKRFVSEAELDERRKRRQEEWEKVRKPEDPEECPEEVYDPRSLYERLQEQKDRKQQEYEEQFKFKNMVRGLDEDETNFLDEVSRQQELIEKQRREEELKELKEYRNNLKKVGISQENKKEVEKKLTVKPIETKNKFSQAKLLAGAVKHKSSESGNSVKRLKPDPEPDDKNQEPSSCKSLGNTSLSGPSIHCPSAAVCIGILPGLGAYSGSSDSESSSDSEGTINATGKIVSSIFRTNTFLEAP
UniProt Q9Y697: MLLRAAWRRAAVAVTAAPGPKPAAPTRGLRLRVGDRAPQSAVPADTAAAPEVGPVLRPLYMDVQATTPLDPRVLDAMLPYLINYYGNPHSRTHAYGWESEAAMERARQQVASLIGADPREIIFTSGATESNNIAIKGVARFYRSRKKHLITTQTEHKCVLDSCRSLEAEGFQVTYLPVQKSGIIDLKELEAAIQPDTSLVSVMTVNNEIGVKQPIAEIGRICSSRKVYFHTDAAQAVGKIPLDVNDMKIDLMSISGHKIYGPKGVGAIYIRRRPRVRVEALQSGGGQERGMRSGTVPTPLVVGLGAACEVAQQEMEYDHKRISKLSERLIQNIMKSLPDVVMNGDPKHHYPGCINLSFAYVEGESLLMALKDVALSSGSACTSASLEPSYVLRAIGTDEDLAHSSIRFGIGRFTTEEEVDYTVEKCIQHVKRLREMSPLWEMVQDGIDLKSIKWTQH
UniProt O00567: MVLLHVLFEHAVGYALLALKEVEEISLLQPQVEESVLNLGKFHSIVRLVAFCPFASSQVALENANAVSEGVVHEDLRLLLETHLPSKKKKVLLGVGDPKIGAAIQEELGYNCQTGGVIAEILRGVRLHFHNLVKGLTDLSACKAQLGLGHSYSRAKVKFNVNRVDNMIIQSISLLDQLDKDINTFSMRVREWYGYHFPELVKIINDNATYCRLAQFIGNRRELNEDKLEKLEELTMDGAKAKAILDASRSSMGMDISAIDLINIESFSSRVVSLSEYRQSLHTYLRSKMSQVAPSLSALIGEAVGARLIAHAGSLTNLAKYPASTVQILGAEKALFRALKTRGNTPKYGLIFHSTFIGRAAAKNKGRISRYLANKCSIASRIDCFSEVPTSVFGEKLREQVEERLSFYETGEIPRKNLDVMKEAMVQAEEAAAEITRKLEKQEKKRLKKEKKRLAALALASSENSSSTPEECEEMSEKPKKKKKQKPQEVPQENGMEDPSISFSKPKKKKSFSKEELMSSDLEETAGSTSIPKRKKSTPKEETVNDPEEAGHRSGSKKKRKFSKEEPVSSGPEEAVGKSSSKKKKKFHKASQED
UniProt Q13330: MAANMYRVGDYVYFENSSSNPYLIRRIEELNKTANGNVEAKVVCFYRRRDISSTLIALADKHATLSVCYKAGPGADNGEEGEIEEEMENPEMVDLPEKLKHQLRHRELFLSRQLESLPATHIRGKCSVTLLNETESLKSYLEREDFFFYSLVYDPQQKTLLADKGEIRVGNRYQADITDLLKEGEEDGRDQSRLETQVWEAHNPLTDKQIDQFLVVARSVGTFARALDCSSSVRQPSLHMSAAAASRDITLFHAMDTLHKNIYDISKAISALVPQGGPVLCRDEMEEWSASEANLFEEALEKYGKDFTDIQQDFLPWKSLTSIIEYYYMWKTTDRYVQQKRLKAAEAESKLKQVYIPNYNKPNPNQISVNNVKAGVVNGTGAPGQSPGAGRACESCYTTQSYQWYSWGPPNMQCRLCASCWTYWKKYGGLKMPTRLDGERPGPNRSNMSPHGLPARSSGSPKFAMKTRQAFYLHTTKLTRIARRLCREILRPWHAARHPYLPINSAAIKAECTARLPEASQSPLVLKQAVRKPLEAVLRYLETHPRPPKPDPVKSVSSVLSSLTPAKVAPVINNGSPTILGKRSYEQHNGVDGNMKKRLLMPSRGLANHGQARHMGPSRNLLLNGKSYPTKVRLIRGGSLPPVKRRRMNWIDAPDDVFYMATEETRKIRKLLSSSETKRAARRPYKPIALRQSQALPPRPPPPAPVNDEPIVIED

Compound: COc1ccc(Cn2ccc3ccc(C(=O)NO)cc32)cc1
Test: dose-dependent thermal stabilisation call (2D-TPP, DLPTP, 10% FDR) (binary (1 = stabilised)); higher = stabilised by the compound
Details: system: HL-60 intact cells; concentration range 0.04-10 µM

Question: NLRC4 (UniProt Q9NPP4) was tested. Which “dose-dependent thermal stabilisation call” value did it give?
Answer: Its value is inactive: 0.

Question: With NANS (UniProt Q9NR45) as the target, how does the “dose-dependent thermal stabilisation call” value read?
Answer: Its value is inactive: 0.

Question: How did the “dose-dependent thermal stabilisation call” value turn out when NME7 (UniProt Q9Y5B8) was run?
Answer: The value was inactive: 0.

Question: Which “dose-dependent thermal stabilisation call” value does the source give for NDST2 (UniProt P52849) here?
Answer: The value was inactive: 0.

Question: For NFYC (UniProt Q13952), which “dose-dependent thermal stabilisation call” value is on record?
Answer: The value was inactive: 0.

Question: Which “dose-dependent thermal stabilisation call” value does the source give for NDE1 (UniProt Q9NXR1) here?
Answer: The value was inactive: 0.

Question: For MUDENG (UniProt Q9H0R1), which “dose-dependent thermal stabilisation call” value is on record?
Answer: The value was inactive: 0.

Question: Which “dose-dependent thermal stabilisation call” value does the source give for NDUFAF1 (UniProt Q9Y375) here?
Answer: The value was inactive: 0.

Question: How did the “dose-dependent thermal stabilisation call” value turn out when NOL8 (UniProt Q76FK4) was run?
Answer: Its value is inactive: 0.

Question: For MTERFD2 (UniProt Q7Z6M4), which “dose-dependent thermal stabilisation call” value is on record?
Answer: The value was inactive: 0.

Question: Which “dose-dependent thermal stabilisation call” value does the source give for NFATC2IP (UniProt Q8NCF5) here?
Answer: The value was inactive: 0.

Question: NEK4 (UniProt P51957) was tested. Which “dose-dependent thermal stabilisation call” value did it give?
Answer: Its value is inactive: 0.

Question: For NOP5/NOP58, which “dose-dependent thermal stabilisation call” value is on record?
Answer: The value was inactive: 0.

Question: How did the “dose-dependent thermal stabilisation call” value turn out when MTERFD1 (UniProt Q96E29) was run?
Answer: Its value is inactive: 0.

Question: For MRRF (UniProt Q96E11), which “dose-dependent thermal stabilisation call” value is on record?
Answer: The value was inactive: 0.

Question: With MTMR2 (UniProt Q13614) as the target, how does the “dose-dependent thermal stabilisation call” value read?
Answer: The value was inactive: 0.

Question: How did the “dose-dependent thermal stabilisation call” value turn out when NDUFV2 (UniProt P19404) was run?
Answer: Its value is inactive: 0.

Question: With MSH2 (UniProt P43246) as the target, how does the “dose-dependent thermal stabilisation call” value read?
Answer: Its value is inactive: 0.

Question: For NDUFB10 (UniProt O96000), which “dose-dependent thermal stabilisation call” value is on record?
Answer: The value was inactive: 0.

Question: With NOLC1 (UniProt Q14978) as the target, how does the “dose-dependent thermal stabilisation call” value read?
Answer: The value was inactive: 0.

Question: NEDD1 (UniProt Q8NHV4) was tested. Which “dose-dependent thermal stabilisation call” value did it give?
Answer: Its value is inactive: 0.

Question: For NME3 (UniProt Q13232), which “dose-dependent thermal stabilisation call” value is on record?
Answer: Its value is inactive: 0.

Question: With MTMR6 (UniProt Q9Y217) as the target, how does the “dose-dependent thermal stabilisation call” value read?
Answer: Its value is inactive: 0.

Question: MYO1F (UniProt O00160) was tested. Which “dose-dependent thermal stabilisation call” value did it give?
Answer: Its value is inactive: 0.

Question: NIPSNAP3A (UniProt Q9UFN0) was tested. Which “dose-dependent thermal stabilisation call” value did it give?
Answer: The value was inactive: 0.

Question: With NDUFA2 (UniProt O43678) as the target, how does the “dose-dependent thermal stabilisation call” value read?
Answer: The value was inactive: 0.

Question: Which “dose-dependent thermal stabilisation call” value does the source give for NAPG (UniProt Q99747) here?
Answer: Its value is inactive: 0.

Question: For NCL (UniProt P19338), which “dose-dependent thermal stabilisation call” value is on record?
Answer: The value was inactive: 0.

Question: How did the “dose-dependent thermal stabilisation call” value turn out when NIP30 (UniProt Q9GZU8) was run?
Answer: Its value is inactive: 0.

Question: NF2 (UniProt P35240) was tested. Which “dose-dependent thermal stabilisation call” value did it give?
Answer: Its value is inactive: 0.

Question: How did the “dose-dependent thermal stabilisation call” value turn out when NFKBIE (UniProt O00221) was run?
Answer: Its value is inactive: 0.

Question: How did the “dose-dependent thermal stabilisation call” value turn out when NOC2L (UniProt Q9Y3T9) was run?
Answer: Its value is inactive: 0.

Question: How did the “dose-dependent thermal stabilisation call” value turn out when NFS1 (UniProt Q9Y697) was run?
Answer: The value was inactive: 0.

Question: With NARS2 (UniProt Q96I59) as the target, how does the “dose-dependent thermal stabilisation call” value read?
Answer: Its value is inactive: 0.

Question: With MTFMT (UniProt Q96DP5) as the target, how does the “dose-dependent thermal stabilisation call” value read?
Answer: Its value is inactive: 0.

Question: Which “dose-dependent thermal stabilisation call” value does the source give for NOL5A (UniProt O00567) here?
Answer: Its value is inactive: 0.

Question: For MTA1 (UniProt Q13330), which “dose-dependent thermal stabilisation call” value is on record?
Answer: The value was inactive: 0.

Question: For MVD (UniProt P53602), which “dose-dependent thermal stabilisation call” value is on record?
Answer: Its value is inactive: 0.
